Data from PMC11237943.
Results are given in words; binding and its absence hold for the method and conditions named. Binding seen in cells or lysates may run through a third protein. A yes stands for co-enrichment or nearness to the bait. Other partners may have been found.

Chains of the proteins cited; added tags and fusions are not shown.
UniProt Q9Y2R2: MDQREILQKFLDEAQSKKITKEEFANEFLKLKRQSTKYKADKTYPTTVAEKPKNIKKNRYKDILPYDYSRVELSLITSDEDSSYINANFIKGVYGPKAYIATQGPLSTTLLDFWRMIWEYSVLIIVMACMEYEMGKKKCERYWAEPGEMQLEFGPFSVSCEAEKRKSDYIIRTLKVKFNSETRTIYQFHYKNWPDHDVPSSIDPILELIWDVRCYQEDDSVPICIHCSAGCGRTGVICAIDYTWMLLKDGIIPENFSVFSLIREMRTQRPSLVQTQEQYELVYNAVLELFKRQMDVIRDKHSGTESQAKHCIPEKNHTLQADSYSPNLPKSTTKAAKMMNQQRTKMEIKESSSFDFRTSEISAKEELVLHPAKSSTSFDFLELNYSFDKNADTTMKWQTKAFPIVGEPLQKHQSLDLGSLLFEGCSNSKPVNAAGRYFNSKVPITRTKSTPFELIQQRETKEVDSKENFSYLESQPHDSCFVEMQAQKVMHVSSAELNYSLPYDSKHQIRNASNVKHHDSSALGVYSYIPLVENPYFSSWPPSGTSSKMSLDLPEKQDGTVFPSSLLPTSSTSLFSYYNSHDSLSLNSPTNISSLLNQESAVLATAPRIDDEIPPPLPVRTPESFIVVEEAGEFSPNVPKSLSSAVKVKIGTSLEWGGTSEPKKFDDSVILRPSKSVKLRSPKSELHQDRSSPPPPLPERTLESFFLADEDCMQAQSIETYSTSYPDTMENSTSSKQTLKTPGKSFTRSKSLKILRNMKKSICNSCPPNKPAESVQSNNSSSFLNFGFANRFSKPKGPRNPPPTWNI
UniProt P49841: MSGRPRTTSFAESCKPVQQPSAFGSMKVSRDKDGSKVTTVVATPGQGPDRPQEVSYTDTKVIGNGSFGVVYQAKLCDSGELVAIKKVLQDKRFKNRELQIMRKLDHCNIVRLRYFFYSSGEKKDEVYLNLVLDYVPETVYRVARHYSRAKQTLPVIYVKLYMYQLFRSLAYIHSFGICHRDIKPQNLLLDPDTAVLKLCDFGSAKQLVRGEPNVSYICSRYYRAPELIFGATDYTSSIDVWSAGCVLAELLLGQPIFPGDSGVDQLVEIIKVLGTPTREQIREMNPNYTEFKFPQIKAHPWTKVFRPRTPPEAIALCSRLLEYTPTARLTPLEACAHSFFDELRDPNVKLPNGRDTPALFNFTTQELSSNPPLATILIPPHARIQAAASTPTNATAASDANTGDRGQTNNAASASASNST
UniProt P49840: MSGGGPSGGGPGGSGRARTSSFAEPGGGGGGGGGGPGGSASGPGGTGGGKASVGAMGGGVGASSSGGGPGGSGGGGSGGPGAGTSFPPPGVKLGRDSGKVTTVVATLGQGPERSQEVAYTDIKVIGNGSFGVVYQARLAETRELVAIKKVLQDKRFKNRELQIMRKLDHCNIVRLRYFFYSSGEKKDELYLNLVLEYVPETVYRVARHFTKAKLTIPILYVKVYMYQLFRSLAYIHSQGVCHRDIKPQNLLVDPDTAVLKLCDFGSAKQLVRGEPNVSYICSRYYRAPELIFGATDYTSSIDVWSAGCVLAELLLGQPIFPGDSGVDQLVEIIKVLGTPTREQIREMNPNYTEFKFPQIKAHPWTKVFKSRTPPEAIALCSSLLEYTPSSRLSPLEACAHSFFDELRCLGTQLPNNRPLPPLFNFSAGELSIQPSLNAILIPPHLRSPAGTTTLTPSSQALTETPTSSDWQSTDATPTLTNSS

Target: BioID2-PTPN22 WT (human) (UniProt Q9Y2R2)
Assay: proximity labelling; BioID2-PTPN22 WT or BioID2 empty vector stably expressed in PTPN22 KO Jurkat cells; biotinylated proteins pulled down on Streptavidin beads, GSK3 α/β detected by Western blot

binding | Substance
binds | glycogen synthase kinase 3 beta (from UniProt P49841 1-420) (enzyme)
binds | glycogen synthase kinase 3 alpha (from UniProt P49840 1-483) (enzyme)
